{
  "sequences": {"note": "Chains of the proteins cited; added tags and fusions are not shown. Residues count along the entry.", "UniProt P05113, residues 20-134": "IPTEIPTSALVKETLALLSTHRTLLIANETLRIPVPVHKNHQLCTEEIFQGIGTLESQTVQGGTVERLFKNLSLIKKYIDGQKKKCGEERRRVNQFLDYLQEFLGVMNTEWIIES"},
  "source": "patent US20160257744A1",
  "binders": {"B1": {"name": "B1 as human IgG1 (antibody, V domains shown)", "VH": "EVQLVQSGAEVKKPGASVKVSCKASGYTFTDYLMHWVRQAPGQGLEWIAVIVSITGRTYYADDFKGRVTITRDTSTSTAYLELSSLRSEDTAVYYCARGGIFYGMDYWGQGTLVTVSS", "VL": "DIQMTQSPSSLSASVGDRVTITCKASQSVINDAAWYQQKPGKAPKLLIYYTSHRYTGVPSRFSGSGSGTDFTLTISSLQEDFATYYCQQDYTPFPLTFGQGTKVEIKR"}, "B2": {"name": "B1, anti-IL4/IL5 dual specific variant of hu19C11, Fab displayed on phage (Fab, V domains shown)", "VH": "B1 VH", "VL": "B1 VL"}, "B3": {"name": "1C60, affinity-matured variant of E7, as IgG (antibody, V domains shown)", "VH": "EVQLVQSGAEVKKPGASVKVSCKASGYTFTDYFIHWVRQAPGQGLEWIAGIVYDATGFTVYADDFKGRVTITRDTSTSTAYLELSSLRSEDTAVYYCARGGIFYGMDYWGQGTLVTVSS", "VL": "DIQMTQSPSSLSASVGDRVTITCKASQSVINDAAWYQQKPGKAPKLLIYYTSHRYTGVPSRFSGSGSGTDFTLTISSLQEDFATYYCQQDYKHPWTFGQGTKVEIKR"}},
  "key": {"[1]": {"target": "interleukin 5 (IL5) (human) (UniProt P05113)", "assay": "blocking ELISA: biotinylated IL5 receptor α binding to immobilized IL5 in the presence of IgG (0, 10, 50 nM), streptavidin-HRP"}, "[2]": {"target": "interleukin 5 (IL5) (human) (UniProt P05113)", "assay": "ELISA: human IgG1 at 250 nM on protein-coated wells, anti-Fc-HRP"}, "[3]": {"target": "interleukin 5 (IL5) (human) (UniProt P05113)", "assay": "ELISA, IgG1 at 250 nM on coated antigen (FIG. 5)"}, "[4]": {"target": "interleukin 5 (IL5) (human) (UniProt P05113)", "assay": "phage clone screening"}, "[5]": {"target": "interleukin 5 (IL5) (human) (UniProt P05113)", "assay": "phage binding competition assay, interleukin in solution against immobilized interleukin"}, "[6]": {"target": "interleukin 5 (IL5) (human) (UniProt P05113)", "assay": "ELISA: IgG at 100 nM on immobilized protein, anti-IgG-HRP [panel A]"}, "[7]": {"target": "interleukin 5 (IL5) (human) (UniProt P05113)", "assay": "ELISA, IgG at 100 nM on immobilized antigen, compared to E7 (FIG. 8A)"}, "[8]": {"target": "interleukin 5 (IL5) (human) (UniProt P05113)", "assay": "blocking ELISA: biotinylated IL5 binding to coated IL5 receptor in the presence of 50 nM antibody or PBS, streptavidin-HRP [panel B]"}},
  "note": "These are yes or no findings as the source states them, for the method shown. Some results given as binding are weak or reduced against the parent protein; the word gives no strength.",
  "data": [
    {"binder": "B1", "values": [
      {"measurement": "binding", "setting": "[1]", "value": "binds"},
      {"measurement": "binding", "setting": "[2]", "value": "binds"},
      {"measurement": "binding", "setting": "[3]", "value": "binds"}
    ]},
    {"binder": "B2", "values": [
      {"measurement": "binding", "setting": "[4]", "value": "binds"},
      {"measurement": "binding", "setting": "[5]", "value": "binds"}
    ]},
    {"binder": "B3", "values": [
      {"measurement": "binding", "setting": "[6]", "value": "binds"},
      {"measurement": "binding", "setting": "[7]", "value": "binds"},
      {"measurement": "binding", "setting": "[8]", "value": "binds"}
    ]}
  ]
}
